# About 3,700 (7%) of roughly 53,000 sequences were called active.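 How the source made its calls: active means gene knockdowns whose robust z-score for IL-1 alpha signal is at least 2 or at most -2, so actives lie on both sides; inactive means the rest.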 Some of the results follow.
# Test: Components of the Cytosolic LPS Sensing Pathway: Gene Identification via Genome-wide siRNA Screen;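 further: robust z of the log signal after scaling to non-targeting control siRNA wells of the plate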
# Conditions: RAW264.7 macrophages, IL-1a HTRF, actives lie on both sides, screened at 100 nM (by protocol), cells primed 5 h with Pam3CSK4 first
# Procedure, shortened: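 IL-1a HTRF of supernatants after 24 hour LipidA transfection of Pam3CSK4-primed (5 hours) RAW264.7 cells, 48h post-siRNA transfection (100 nM). Scores: percent of plate negative-control median, then log-based robust z-score.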
row,Sequence,z-score
1,GCAAUCCGGCGAUAAGAAUTT against BC031181,inactive: -0.127
2,GGCCCAACCUUGGAUCUUUTT against Nudt22,inactive: 0.751
3,GGCUUAGUCAACUUGAAAATT against Dmac2l,inactive: 1.3
4,CCGUUGUUCAUAAUUGUGATT against Mvb12b,inactive: -0.317
5,CGAUCAUCGCUCAGUAUAATT against Dlg4,inactive: -0.252
6,GGCAUUGACAUAGGUCAUATT against Blcap,inactive: 0.668
7,CCAAAUCUGAAAUGUGCGGTT against Nprl3,inactive: -0.0808
8,GGCAAAAACAACAACAACATT against Isg20,inactive: -1.31
9,GGCCUCACCUUUUUCUAUUTT against Tmem121,inactive: -0.663
10,CCCUGUUAGUGUCUCUAUUTT against Tas2r113,inactive: 0.179
11,GGAAAUCGUGCCUAGUCUGTT against Cdk3,inactive: 0.0204
12,GGAAUGAUAUUCUUGUUUCTT against Klhl24,inactive: 0.834
13,CCCUGAUAUAUACACAUACTT against Pofut1,inactive: -1.59
14,CGUUAGCAGGAUGUUAAACTT against Ropn1,inactive: -0.715
15,GCACCUUUGACAGAAGAACTT against Ptf1a,inactive: 0.848
16,GGUGUCCAGUCAAUAAGAGTT against Msx3,inactive: -0.0298
17,GGGCCAUGCUAGAUUUGCUTT against Scamp1,inactive: -1.34
18,GCACAACAAGCGAUGUCAUTT against Myo9b,active: -2.13
19,GAUAUGUGCACAAUUCUGCTT against Vmn1r201,active: -2.3
20,GGAAGCAGGGCAGCUUAUUTT against Hbq1a,active: -2.22
21,GGUGACAAAAGUCUUUAACTT against Mkrn3,inactive: -1.41
22,CCCUAGAAGAGCUCUGUUATT against Cts6,inactive: 1.1
23,GGAAGAAAAGGGAUAUCAGTT against Xirp1,inactive: 0.253

row,Sequence,z-score
1,GGACCAAGGGUUCAUAGCATT against Wdr35,inactive: -0.137
2,GGAGAUCAUGAAGGAGCUATT against Tinagl1,inactive: 0.0227
3,CCGAGAAAUGGAAACUUAGTT against Pramel25,inactive: 0.891
4,GGUUUUUACAUCAUCUUGATT against Stom,inactive: 1.9
5,GCGGCAGUAAAUUGUGAGGTT against Grin3b,inactive: 1.4
6,CGAUGAUUAACAUCUUACGTT against Scrn1,inactive: -1.93
7,CCUCUUUGGAAGAAUGCUGTT against Mapk11,inactive: -1.32
8,GCAGAUCUCCGAUUAUUUUTT against Doc2b,inactive: -0.0671
9,GGAAAAUCAGCAUUUUGCCTT against Cdca3,inactive: -0.463
10,GGCCUCUGUCAUUUUAAAGTT against Tmem121,inactive: -1.63
11,GGUACUUUCCUUUCGAUGCTT against Skint10,inactive: -0.524
12,GGGAUUUGAGCAUCUUUCCTT against Lrrc40,inactive: 0.571
13,GCUCAGUUUACCACACGAGTT against Arl11,inactive: -1.23
14,GGCGCGAAGUGUGAAUUUCTT against Megf10,inactive: 1.1
15,GCCUAGACCAGACACCAAATT against Prp15,inactive: -1.49
16,GAGAAUAAUACCAUCUCCUTT against Olfr482,inactive: 0.558
17,GGAGGAAGAUUUUUUUGCUTT against Arfgap3,inactive: 0.736
18,GGUGCCCUAUGGAGAGAAATT against Serac1,inactive: -0.209
19,CCAGUCAAAAGGAAAUGAATT against Dclre1a,inactive: 0.421
20,GGCGAUCCUUACUCCAAUGTT against Zfp90,inactive: 0.143
21,CGGUUAGUCUGUCAGUAUCTT against Xrcc3,inactive: 0.488
22,GCGUGCUUUGAAGAGGUUGTT against Olfr298,inactive: 0.759
23,GGAAGAGCAGGCAUCCAUATT against Ranbp10,inactive: -0.294

# Retrieved one by one from the list above:
row,Sequence,z-score
22,GCGUGCUUUGAAGAGGUUGTT against Olfr298,inactive: 0.759
10,GGCCUCUGUCAUUUUAAAGTT against Tmem121,inactive: -1.63

# Next records:

row,Sequence,z-score
1,CCUGUAAGGUCUCUAGCAUTT against Exosc1,inactive: 1.53
2,CGAGAAGACCAUCAUCAUATT against Rbbp9,inactive: -0.193
3,GGAGGCCACCAAAAUUAACTT against Kif17,inactive: -0.914
4,GGUCGAAGAGGAAGUAAACTT against Cd40lg,inactive: -0.438
5,GGACUAUGUCUUUGACAAATT against Cdyl2,inactive: -0.133
6,CCCAUCAAUGCUGUUAAUUTT against Entpd5,inactive: 0.128
7,GGACCAGGUCCGUUGGAAUTT against Efna1,inactive: 0.636
8,GCCUUUCUAUGCCCAGCAUTT against Ccdc117,inactive: -0.0526
9,GGUACCAUCACAGUGCGUCTT against Ip6k3,inactive: 0.923
10,GCAUUUUGUUGUGCUAUAGTT against Tmem255a,inactive: -0.00422
11,GGGCCAACAGAAACAGAAGTT against Otp,inactive: -0.524
12,GGUGCCGAACGUGUAAUUATT against Rarb,inactive: 0.936
13,GGUGAAAAUACAUUGCCAGTT against Plk4,inactive: -0.712
14,GGAUAACCAAAGGAAUGUUTT against Cldn17,inactive: -1.52
15,GGAAGGUUGUAAGUUUAAATT against Krtap14,active: 2.12
16,GGGCAAAGAUCAAAGAGAUTT against Man1a,inactive: -0.00191
17,GCAAACUUAUUACCAGGGATT against Shc3,inactive: 0.293
18,GGUACCUGAGGAAAAGGUUTT against Nlrp2,inactive: -1.51
19,CGGAUUUCAUGGCUCAAGATT against Gfm2,inactive: -0.123
20,GCUAAGGACACGCUCUAUCTT against Sema5b,inactive: -0.0272
21,GCACUUAUGGUUUAGAUGUTT against Prdm8,inactive: -0.127
22,GGUUGCACUCAUCUUAAAATT against Zfp9,inactive: 1.59

# — PubChem BioAssay AID1508600 (Functional Genomics Laboratory (NCATS/FGL), 2020)
